The source of these data is patent publication US20110251256A1 (KOREA UNIVERSITY INDUSTRIAL AND ACADEMIC COLLABORATIVE …, published 2011).

Amino acid sequences for entries named in this document (tags omitted). A change or cut given only in a name is not applied to a line headed by its entry.
UniProt P35568: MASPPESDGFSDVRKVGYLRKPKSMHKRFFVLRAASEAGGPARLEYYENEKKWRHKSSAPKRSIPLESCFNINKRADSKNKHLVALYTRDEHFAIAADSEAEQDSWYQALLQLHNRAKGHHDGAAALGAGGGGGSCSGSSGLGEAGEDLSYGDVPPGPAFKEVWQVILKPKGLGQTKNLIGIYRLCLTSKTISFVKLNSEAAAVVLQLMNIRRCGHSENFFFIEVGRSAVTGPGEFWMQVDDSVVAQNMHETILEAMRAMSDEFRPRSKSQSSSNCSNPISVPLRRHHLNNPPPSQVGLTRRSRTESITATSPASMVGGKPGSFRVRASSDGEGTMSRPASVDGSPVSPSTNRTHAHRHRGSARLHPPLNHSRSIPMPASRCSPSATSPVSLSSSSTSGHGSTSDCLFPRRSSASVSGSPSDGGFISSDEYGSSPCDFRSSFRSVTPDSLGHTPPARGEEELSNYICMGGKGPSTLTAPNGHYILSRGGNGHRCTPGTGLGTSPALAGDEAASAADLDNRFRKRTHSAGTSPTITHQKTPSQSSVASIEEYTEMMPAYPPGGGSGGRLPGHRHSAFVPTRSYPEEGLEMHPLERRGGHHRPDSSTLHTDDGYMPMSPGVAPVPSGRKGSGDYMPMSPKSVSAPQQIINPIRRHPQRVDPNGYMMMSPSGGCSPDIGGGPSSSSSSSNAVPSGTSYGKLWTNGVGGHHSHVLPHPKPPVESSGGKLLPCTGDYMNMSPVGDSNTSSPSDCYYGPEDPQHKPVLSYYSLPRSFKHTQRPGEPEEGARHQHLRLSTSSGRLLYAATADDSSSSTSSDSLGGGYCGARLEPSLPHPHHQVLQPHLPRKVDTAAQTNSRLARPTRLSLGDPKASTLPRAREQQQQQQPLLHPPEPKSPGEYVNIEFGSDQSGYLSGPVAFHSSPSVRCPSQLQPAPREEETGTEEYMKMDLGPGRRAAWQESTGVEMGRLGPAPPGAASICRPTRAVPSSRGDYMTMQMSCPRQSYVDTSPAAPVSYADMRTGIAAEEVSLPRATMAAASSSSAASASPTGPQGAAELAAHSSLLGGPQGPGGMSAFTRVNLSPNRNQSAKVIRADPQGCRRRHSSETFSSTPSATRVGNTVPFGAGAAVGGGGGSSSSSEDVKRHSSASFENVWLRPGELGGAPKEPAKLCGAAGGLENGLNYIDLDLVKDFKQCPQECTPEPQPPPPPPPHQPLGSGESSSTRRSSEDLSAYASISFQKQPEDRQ

These are yes or no findings as the source states them, for the method shown. In cells and extracts the contact can be indirect. Some results given as binding are weak or reduced against the parent protein; the word gives no strength. Where a sequence is shown, tags or fusion partners need not be part of it.

Assay [1] addresses T1, Myc-TRIM72 (full-length, cDNA 1-1431) (Homo sapiens (Human)) (UniProt Q6ZMU5).
T1 sequence: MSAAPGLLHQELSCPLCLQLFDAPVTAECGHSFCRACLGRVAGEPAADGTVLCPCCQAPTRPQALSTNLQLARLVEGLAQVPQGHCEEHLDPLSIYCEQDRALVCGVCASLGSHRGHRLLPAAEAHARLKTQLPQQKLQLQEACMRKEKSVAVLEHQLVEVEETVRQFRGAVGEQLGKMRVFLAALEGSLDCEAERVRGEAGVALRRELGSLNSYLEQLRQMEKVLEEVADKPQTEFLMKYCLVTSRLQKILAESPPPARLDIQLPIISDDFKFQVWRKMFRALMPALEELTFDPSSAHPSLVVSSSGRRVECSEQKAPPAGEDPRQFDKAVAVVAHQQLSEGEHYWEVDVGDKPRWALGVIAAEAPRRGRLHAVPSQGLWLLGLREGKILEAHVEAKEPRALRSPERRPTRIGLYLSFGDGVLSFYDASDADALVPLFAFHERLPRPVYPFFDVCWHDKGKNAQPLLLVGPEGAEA
The assay is described as follows: co-immunoprecipitation, Myc-TRIM72 and Flag-IRS-1 mutants in 293 cells with MG132 (FIG. 9C).

In assay [2] the target is Flag-IRS-1 (full-length, cDNA 1-3729) (UniProt P35568). Description: co-immunoprecipitation, Flag-IRS-1 and Myc-TRIM72 mutants in 293 cells with MG132 (FIG. 9D).

As for “Flag-IRS-1 Mid-region (cDNA 880-2608; Mid (300-870)) (from UniProt P35568 300-870)”, the binding entry in assay [1] was “binds”.

For “Flag-IRS-1 Rear-region (cDNA 2581-3729; Rear (871-1243)) (from UniProt P35568 861-1242)”, in assay [1], the binding result is listed as “binds”.

B1: Myc-TRIM72 coiled-coil construct (cDNA 367-1020) (protein, not shown: small tags and cut ends)
chain: AEAHARLKTQLPQQKLQLQEACMRKEKSVAVLEHQLVEVEETVRQFRGAVGEQLGKMRVFLAALEGSLDCEAERVRGEAGVALRRELGSLNSYLEQLRQMEKVLEEVADKPQTEFLMKYCLVTSRLQKILAESPPPARLDIQLPIISDDFKFQVWRKMFRALMPALEELTFDPSSAHPSLVVSSSGRRVECSEQKAPPAGEDPRQFDKAVAVVAHQQL
For B1, the binding result in assay [2] is “binds”.
